According to the supplement of paper PMC4604168 (melanoma cell lines):
Some of the results follow. Repeats are few or missing, and single values can be far off.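 The apoptosis fraction was the count of cleaved-PARP antibody-stained nuclei relative to all DNA-stained nuclei, imaged in 1,536-well plates. Screening doses were set so most cells survived, and baseline and induced cleaved-PARP levels vary greatly across cell lines.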

System: RVH-421
Experiment: cleaved PARP positive nuclei fraction relative to DMSO control; melanoma cells; higher = more apoptosis
Conditions: library dose: low library concentration; 72 h

First: Cn1c(Nc2ccc(C(F)(F)F)cc2)nc2cc(Oc3ccnc(-c4ncc(C(F)(F)F)[nH]4)c3)ccc21 + Nc1cccc2c1CN(C1CCC(=O)NC1=O)C2=O [lenalidomide] (first compound 0.08 µM, partner dose 1 µM)
Second: Clc1ccc(Nc2nnc(Cc3ccncc3)c3ccccc23)cc1 [vatalanib] + Cc1nc(Nc2ncc(C(=O)Nc3c(C)cccc3Cl)s2)cc(N2CCN(CCO)CC2)n1 [dasatanib] (first compound 2 µM, partner dose 0.004 µM)
The “cleaved PARP positive nuclei fraction” value of the first is higher: 182% for the first, 99.5% for the second.

Going from `OCc1c[nH]c2ccccc12` [Indole-3-carbinol] + O=S(=O)(c1ccccc1)N(CC(F)(F)F)c1ccc(C(O)(C(F)(F)F)C(F)(F)F)cc1 [T0901317] (first compound 0.8 µM, partner dose 1.4 µM) to `Clc1ccc(Nc2nnc(Cc3ccncc3)c3ccccc23)cc1` [vatalanib] + C#Cc1cccc(Nc2ncnc3cc(OCCOC)c(OCCOC)cc23)c1 [erlotinib] (first compound 2 µM, partner dose 0.8 µM), the “cleaved PARP positive nuclei fraction” value falls from 136% to 126%.

First: C=CCNC1=C2C[C@@H](C)C[C@H](OC)[C@H](O)[C@@H](C)/C=C(\C)[C@H](OC(N)=O)[C@@H](OC)/C=C\C=C(/C)C(=O)NC(=CC1=O)C2=O [Tanespimycin] + Nc1cccc2c1CN(C1CCC(=O)NC1=O)C2=O [lenalidomide] (first compound 0.002 µM, partner dose 1 µM)
Second: C#Cc1cccc(Nc2ncnc3cc(OCCOC)c(OCCOC)cc23)c1 [erlotinib] + Cn1c(Nc2ccc(C(F)(F)F)cc2)nc2cc(Oc3ccnc(-c4ncc(C(F)(F)F)[nH]4)c3)ccc21 [CHIR265] (first compound 0.8 µM, partner dose 0.08 µM)
The “cleaved PARP positive nuclei fraction” value of the first is lower: 73.7% for the first, 246% for the second.

Going from `C=CCNC1=C2C[C@@H](C)C[C@H](OC)[C@H](O)[C@@H](C)/C=C(\C)[C@H](OC(N)=O)[C@@H](OC)/C=C\C=C(/C)C(=O)NC(=CC1=O)C2=O` [Tanespimycin] + OCc1c[nH]c2ccccc12 [Indole-3-carbinol] (first compound 0.002 µM, partner dose 0.8 µM) to `C#Cc1cccc(Nc2ncnc3cc(OCCOC)c(OCCOC)cc23)c1` [erlotinib] + Cn1nnc2c(C(N)=O)ncn2c1=O [temozolomide] (first compound 0.8 µM, partner dose 2 µM), the “cleaved PARP positive nuclei fraction” value falls from 89.3% to 74.8%.

First: C=CCNC1=C2C[C@@H](C)C[C@H](OC)[C@H](O)[C@@H](C)/C=C(\C)[C@H](OC(N)=O)[C@@H](OC)/C=C\C=C(/C)C(=O)NC(=CC1=O)C2=O [Tanespimycin] + CC(=O)c1c(C)c2cnc(Nc3ccc(N4CCNCC4)cn3)nc2n(C2CCCC2)c1=O [palbociclib] (first compound 0.002 µM, partner dose 0.04 µM)
Second: Cn1c(Nc2ccc(C(F)(F)F)cc2)nc2cc(Oc3ccnc(-c4ncc(C(F)(F)F)[nH]4)c3)ccc21 + COCC[n+]1c2c(n(Cc3cnccn3)c1C)C(=O)c1ccccc1C2=O [YM155] (first compound 0.08 µM, partner dose 0.0004 µM)
The “cleaved PARP positive nuclei fraction” value of the first is higher: 77.5% for the first, 51.1% for the second.

With `C=CCNC1=C2C[C@@H](C)C[C@H](OC)[C@H](O)[C@@H](C)/C=C(\C)[C@H](OC(N)=O)[C@@H](OC)/C=C\C=C(/C)C(=O)NC(=CC1=O)C2=O` [Tanespimycin] + CC(C)CCN1c2nc(Nc3cc(F)c(O)c(F)c3)ncc2N(C)C(=O)C1C [BID1870] (first compound 0.002 µM, partner dose 0.2 µM) the “cleaved PARP positive nuclei fraction” value was 81.7%.
